The values that follow come from PMC4973907.

Results are given in words; binding and its absence hold for the method and conditions named. In cells and extracts the contact can be indirect. Some binding calls cover weakened binding; strength is not graded here. Tags and fused reporters may be left off the sequences shown.

Assay [1] has as its target T1, nRFP-PEX7 (UniProt Q9XF57).
T1 sequence: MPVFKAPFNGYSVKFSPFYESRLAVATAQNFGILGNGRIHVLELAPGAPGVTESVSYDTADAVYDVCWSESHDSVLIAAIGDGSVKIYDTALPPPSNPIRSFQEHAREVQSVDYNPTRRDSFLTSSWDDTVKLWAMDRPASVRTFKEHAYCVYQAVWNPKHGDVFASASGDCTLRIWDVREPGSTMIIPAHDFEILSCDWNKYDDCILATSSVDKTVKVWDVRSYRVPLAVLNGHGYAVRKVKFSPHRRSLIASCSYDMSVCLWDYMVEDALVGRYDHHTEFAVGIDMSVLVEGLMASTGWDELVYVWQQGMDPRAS
The assay can be described thus: split reporter; mRFP1-based BiFC; pairs of Agrobacterium cultures with binary vectors co-infiltrated into Nicotiana benthamiana leaves, incubation for 3 days, confocal microscopy.

In assay [2] the target is T2, peroxisomal membrane protein 38 (PMP38), fused to a split mRFP1 fragment (UniProt O04200).
T2 sequence: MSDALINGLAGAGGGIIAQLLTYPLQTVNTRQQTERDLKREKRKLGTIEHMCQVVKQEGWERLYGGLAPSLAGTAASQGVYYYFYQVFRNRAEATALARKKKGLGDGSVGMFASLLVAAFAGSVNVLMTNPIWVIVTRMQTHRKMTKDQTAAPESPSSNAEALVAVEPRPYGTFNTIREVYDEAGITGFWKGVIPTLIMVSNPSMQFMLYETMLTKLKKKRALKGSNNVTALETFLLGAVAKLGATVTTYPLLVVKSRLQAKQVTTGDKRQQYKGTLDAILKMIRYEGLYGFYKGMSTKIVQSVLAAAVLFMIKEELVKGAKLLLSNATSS
The assay is described as above.

Assay [3] deals with T3, AtSEC31A-nYFP (UniProt F4ICD9).
T3 sequence: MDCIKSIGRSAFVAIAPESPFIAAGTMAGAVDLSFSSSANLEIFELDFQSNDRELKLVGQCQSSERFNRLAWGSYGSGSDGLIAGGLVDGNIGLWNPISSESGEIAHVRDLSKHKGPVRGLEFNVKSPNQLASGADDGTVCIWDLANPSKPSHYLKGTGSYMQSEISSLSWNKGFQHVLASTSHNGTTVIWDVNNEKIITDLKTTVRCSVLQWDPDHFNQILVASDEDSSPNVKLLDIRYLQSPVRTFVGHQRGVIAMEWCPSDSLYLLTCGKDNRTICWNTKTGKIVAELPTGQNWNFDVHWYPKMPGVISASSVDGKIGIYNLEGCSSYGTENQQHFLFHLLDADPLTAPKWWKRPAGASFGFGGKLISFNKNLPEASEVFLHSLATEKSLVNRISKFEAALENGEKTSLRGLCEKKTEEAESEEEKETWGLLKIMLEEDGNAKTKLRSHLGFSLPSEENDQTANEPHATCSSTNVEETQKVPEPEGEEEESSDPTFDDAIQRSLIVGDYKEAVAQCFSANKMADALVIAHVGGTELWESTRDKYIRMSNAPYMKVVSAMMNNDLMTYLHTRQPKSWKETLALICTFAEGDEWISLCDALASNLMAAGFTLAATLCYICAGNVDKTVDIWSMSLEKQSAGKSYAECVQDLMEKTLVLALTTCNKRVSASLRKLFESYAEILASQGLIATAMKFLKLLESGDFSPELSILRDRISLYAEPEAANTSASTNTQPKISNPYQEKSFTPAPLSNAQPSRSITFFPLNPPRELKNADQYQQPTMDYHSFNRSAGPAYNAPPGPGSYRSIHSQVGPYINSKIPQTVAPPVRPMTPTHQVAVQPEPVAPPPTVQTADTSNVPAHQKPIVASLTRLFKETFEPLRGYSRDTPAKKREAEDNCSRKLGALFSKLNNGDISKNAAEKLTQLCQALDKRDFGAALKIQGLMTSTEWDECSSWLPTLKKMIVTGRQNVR
The assay can be described thus: split reporter; BiFC with split ECFP, EGFP, EYFP or mRFP1; two or four plasmids introduced into onion epidermal cells by particle bombardment; confocal microscopy and emission spectra (LSM510 META).

B1: cRFP-PEX12 (protein, UniProt Q9M841 1-393)
chain: MLFQVGGEGTRPTFFEMAAAQQLPASLRAALTYSLGVFALRRSFLHKILDYEDEFFAALMLILEGHSLRTTDGSFAESLYGLRRKSARLRLRKDSARKDSSEEVQHSGLEKRQRILSVVFLVVLPYFKSKLHAIYNKEREARLRESLWGAEDQGFDEADFFTGDDSIVSREPSGNEELSVRVQLATKIKKFIAVCYPWIHASSEGLSFTYQLLYLLDATGFYSLGLQALGIQVCRATGQELMDTSSRISKIRNHERERLRGPPWLKTVQGALLSCSYAVLDYAQTGLIAAVFIFKMMEWWYQSAEERLSAPTVYPPPPPPPAPKMAKEGIPLPPDRSLCALCLQKRANPSVVTVSGFVFCYSCVFKYVSKYKRCPVTLIPASVDQIRRLFQDT
For B1, the binding entry in assay [1] and in assay [2] was “no binding” in each case.

B2: peroxisomal membrane protein 38 (PMP38), fused to a split mRFP1 fragment (protein, UniProt O04200 1-331)
chain: T2 sequence
Take B2: the results for the binding entry in assay [1] and in assay [2] were “no binding” and “binds”, respectively.

B3: AtSEC13A-cYFP (protein, UniProt Q9SRI1 1-302)
chain: MPPQKIETGHSDTIHDVVMDYYGKRVATASSDCTIKITGVSNSGGSQHLATLTGHRGPVWQVAWAHPKFGSLLASCSYDGQIILWKEGNQNQWTQAHVFTDHKVSVNSIAWAPHELGLSLACGASDGNISVFSARADGGWDTTKIDQAHPVGVTSVSWAPATEPGALVSSGMIDPVYKLASGGCDSTVKVWKFSNGSWKMDCFPALNKHTDWVRDVAWAPNLGLPKSTIASGSEDGKVIIWTIGKEGEQWEGTVLKDFKTPVWRVSWSLTGNLLAVSDGNNNVTVWKESVDGEWEQVTVVEP
Consider B3, for which the binding result in assay [3] was “binds”.
